Assay results from patent US20230112035A1 (AstraZeneca / MedImmune, published 2023).
Substitutions are numbered along the chain they refer to. Names and notes keep the numbering of the source. Results are given in words; binding and its absence hold for the method and conditions named. Some results given as binding are weak or reduced against the parent protein; the word gives no strength. One block for each binder: values may come before it.

Chains of the proteins cited; added tags and fusions are not shown. Lines headed by an entry give the natural chain unless they say otherwise; changes in a name come on top.
UniProt P06756: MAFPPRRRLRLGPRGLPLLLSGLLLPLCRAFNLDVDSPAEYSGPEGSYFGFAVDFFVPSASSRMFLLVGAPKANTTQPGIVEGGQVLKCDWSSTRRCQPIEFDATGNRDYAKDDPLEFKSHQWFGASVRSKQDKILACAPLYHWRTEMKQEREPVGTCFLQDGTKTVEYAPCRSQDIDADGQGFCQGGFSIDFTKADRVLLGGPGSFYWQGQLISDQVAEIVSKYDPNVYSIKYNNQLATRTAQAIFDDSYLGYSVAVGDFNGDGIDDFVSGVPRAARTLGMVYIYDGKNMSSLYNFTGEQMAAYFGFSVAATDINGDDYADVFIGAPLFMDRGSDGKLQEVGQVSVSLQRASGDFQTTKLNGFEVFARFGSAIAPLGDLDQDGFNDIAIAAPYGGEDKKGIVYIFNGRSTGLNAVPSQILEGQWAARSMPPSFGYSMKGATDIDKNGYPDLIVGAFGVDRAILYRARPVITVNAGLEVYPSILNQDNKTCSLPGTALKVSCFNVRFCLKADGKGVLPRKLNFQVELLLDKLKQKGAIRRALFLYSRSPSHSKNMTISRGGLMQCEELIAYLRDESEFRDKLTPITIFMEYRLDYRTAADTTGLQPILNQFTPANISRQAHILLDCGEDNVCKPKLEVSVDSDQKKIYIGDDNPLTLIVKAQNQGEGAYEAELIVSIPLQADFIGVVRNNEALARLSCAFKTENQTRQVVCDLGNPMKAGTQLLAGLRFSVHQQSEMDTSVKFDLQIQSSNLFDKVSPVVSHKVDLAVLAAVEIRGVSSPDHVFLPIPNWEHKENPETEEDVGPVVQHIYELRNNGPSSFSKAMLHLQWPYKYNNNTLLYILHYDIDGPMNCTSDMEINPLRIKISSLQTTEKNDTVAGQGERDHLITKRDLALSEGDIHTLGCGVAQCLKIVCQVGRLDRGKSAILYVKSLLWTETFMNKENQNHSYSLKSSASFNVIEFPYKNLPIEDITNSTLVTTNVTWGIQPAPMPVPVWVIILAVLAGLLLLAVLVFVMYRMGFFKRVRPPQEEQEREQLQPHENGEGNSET

What was measured:
[1] = target: recombinantly produced αvβ8 integrin protein (UniProt P06756); assay: binding curves (FIG. 1B)
[2] = target: recombinantly produced αvβ8 integrin protein (UniProt P06756); assay: affinity binding studies (FIG. 1A)
[3] = target: recombinantly produced αvβ8 integrin protein (UniProt P06756); assay: binding curves of IgG on αvβ8 integrin protein (FIG. 1A)
[4] = target: recombinantly produced αvβ8 integrin protein (UniProt P06756); assay: ELISA, recombinant αvβ8 integrin protein coated, HRP goat anti-human Fc detection
[5] = target: recombinantly produced αvβ8 integrin protein (UniProt P06756); assay: ELISA screening of position 94 mutants
[6] = target: recombinantly produced αvβ8 integrin protein (UniProt P06756); assay: ELISA on coated recombinant αvβ8 integrin protein (FIG. 4)
[7] = target: recombinantly produced αvβ8 integrin protein (UniProt P06756); assay: comparison of FIG. 1B (Biacore, binding curves) and FIG. 4 (ELISA)
[8] = target: recombinantly produced αvβ8 integrin protein (UniProt P06756); assay: binding curves and Biacore (FIG. 1B)

binding [1]: binds
binding [2]: binds
binding [3]: binds
B1: hu37E1B5 anti-αvβ8 integrin antibody (UCSF humanized sequence of WO 2013/026004) (antibody, V domains shown)
VH: EVQLVESGGGLVQPGGSLRLSCAVSGFVFSRYWMSWVRQAPGKGLEWIGEINPDSSTINYTSSLKDRFTISRDNAKNSLYLQMNSLRAEDTAVYYCASLITTEDYWGQGTTVTVSS
VL: EIVLTQSPSSLSLSPGERVTITCKASQDINSYLSWYQQKPGKAPKLLIYYANRLVDGVPARFSGSGSGQDYTLTISSLEPEDFAVYYCLQYDEFPYTFGGGTKLEIK

binding [4]: binds
B2: B5-15 N59Q anti-αvβ8 integrin antibody (antibody, V domains shown)
VH: B1 VH with Y32S, M34I, N59Q, S98I
VL: DIQLTQSPSSLSASVGDRVTITCKASQDINKYLSWFQQKPGKAPKSLIYYANRLVDGVPSRFSGSGSGTDFTLTISSLQPEDFATYYCLQYDVFPYTFGGGTKVEIK

binding [5]: binds
B3: MEDI-hu37E1B5-C94I mutant antibody (antibody, V domains shown)
VH: B1 VH with S98I
VL: B2 VL with K31S, V93E
notes: IgG; also called humanized anti-αvβ8 integrin antibody C94I

binding [6]: binds
binding [7]: binds
binding [4]: binds
B4: B5-15 humanized and affinity optimized anti-αvβ8 integrin antibody (antibody, V domains shown)
VH: B1 VH with Y32S, M34I, S98I
VL: B2 VL

binding [1]: binds
binding [8]: binds
binding [3]: binds
B5: Chi-37E1B5 chimeric anti-αvβ8 integrin antibody (antibody, V domains shown)
VH: B1 VH with R19N, R67K, T69I, S78T, S85K, L86V, A88S, V93L, S98C, T111S
VL: EIVLTQSPSSMYASLGERVTIPCKASQDINSYLSWFQQKPGKSPKTLIYYANRLVDGVPSRFSGSGSGQDYSLTISSLEYEDMGIYYCLQYDEFPYTFGGGTKLEIK
